Measurements taken from article doi:10.1101/2021.11.02.466916.
Changes are numbered by the printed parent chain. Names may count otherwise. These are yes or no findings as the source states them, for the method shown. Some binding calls cover weakened binding; strength is not graded here. Blank lines part the entries; values can stand above or below the binder they belong to.

Chains of the proteins cited; added tags and fusions are not shown.
UniProt P38903: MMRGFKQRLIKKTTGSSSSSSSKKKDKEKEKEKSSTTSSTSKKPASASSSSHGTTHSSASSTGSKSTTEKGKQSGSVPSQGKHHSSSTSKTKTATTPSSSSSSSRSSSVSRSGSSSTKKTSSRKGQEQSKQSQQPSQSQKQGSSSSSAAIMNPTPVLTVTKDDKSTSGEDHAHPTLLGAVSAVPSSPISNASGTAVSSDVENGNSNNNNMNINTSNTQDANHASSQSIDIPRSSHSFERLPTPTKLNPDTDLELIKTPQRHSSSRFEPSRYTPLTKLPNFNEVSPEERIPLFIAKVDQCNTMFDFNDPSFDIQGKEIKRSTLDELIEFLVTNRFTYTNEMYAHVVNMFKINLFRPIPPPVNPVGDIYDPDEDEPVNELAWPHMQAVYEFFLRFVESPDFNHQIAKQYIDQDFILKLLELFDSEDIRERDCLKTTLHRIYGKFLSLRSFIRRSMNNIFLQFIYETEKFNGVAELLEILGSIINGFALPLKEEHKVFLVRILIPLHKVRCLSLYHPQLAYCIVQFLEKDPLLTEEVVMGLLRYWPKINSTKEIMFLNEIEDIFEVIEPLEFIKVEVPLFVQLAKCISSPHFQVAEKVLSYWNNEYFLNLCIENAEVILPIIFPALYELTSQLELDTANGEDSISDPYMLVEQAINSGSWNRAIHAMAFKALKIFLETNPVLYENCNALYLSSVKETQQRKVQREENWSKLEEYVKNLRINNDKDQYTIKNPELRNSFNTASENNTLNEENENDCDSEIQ

Columns and labels:
[1] = target: T1, Dpb11 (S. cerevisiae) (UniProt P47027); experiment: two-hybrid
T1 sequence: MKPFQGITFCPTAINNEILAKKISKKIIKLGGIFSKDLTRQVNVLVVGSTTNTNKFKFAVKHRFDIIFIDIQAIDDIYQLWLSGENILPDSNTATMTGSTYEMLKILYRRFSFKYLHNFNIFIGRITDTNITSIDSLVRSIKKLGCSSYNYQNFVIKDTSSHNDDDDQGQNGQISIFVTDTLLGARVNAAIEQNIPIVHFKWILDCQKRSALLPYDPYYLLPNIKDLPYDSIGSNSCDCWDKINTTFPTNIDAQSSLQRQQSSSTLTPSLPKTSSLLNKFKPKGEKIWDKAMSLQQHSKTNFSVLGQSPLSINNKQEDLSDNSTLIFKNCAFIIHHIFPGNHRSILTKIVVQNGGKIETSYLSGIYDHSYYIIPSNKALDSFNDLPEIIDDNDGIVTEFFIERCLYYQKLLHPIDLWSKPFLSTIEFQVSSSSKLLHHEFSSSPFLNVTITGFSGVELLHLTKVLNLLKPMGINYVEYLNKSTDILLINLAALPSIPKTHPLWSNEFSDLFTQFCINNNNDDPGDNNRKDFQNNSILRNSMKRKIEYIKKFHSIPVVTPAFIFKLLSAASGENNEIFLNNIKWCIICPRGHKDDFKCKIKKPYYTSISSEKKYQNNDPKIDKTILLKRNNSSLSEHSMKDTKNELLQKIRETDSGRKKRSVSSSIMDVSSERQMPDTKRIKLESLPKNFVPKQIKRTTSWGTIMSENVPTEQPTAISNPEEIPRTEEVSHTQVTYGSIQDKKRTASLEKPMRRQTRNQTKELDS

[2] = target: Rts1 (S. cerevisiae) (UniProt P38903); experiment: two-hybrid

binding [1]: binds
binding [2]: binds
B1: Sld3 (protein, UniProt P53135 1-668)
chain: METWEVIASVKEATKGLDLSLDHPLIIKSEDVPSNILQLLQQKNRRQLKHICMKSRKEYFLLEEYGPGFWVKWPYNYFNGYSLPERRTEVVTTVERERAKRETLKTWDELKFKELLHLWSEEPKGSCKLEKDKDLKLDMNPPDMKGESKINDYYSDPKEYIESKYYDALFSIHTPLAYFVKSNLVRLKNTCRTKYGSDSYKIAYQAMLQKFLLSIVQFKDRHDNRLLLEPFSSPIADEKRKNCLTKFVIQDENKNSSTIADLCVVLKSREIKLQILLLLEIIGLNDLDWNFRDFEKKYKLKLKKRSLNLTKKGLVRRRSKKKTSEKDKGIERITTSLDYCEQLDLYLDRACILDILLSSETPNPDAIEASNGTIQEHKKNILDKSKEASLVGFINYVLIPYFNKKVPHAVEFIIQKLKGPSMRPKRALKKVNDSTNVSSPNTVETYNRLSTSQRASRSSIINSVPSSPALRRVDANLFSRKSIASPTPELLNSRTNSNLNEFLESETRSLKRPSQLGRTKSDLTMNHLQKRQFSVSDLSTTRVPNSSTITLKTPFSHSTINAYKTMNNSFRRVGKRKDINETIRLHERVDSEENVQVQATPAVKKRTVTPNKKAQLQSIIESPLNFKDDDTHEGRKNTSNITSTPTNKPPENSSKRRVRRRLFAPEST

binding [1]: binds
binding [2]: no binding
B2: Sld3-R (Sld3 with L616A and I619A in the Rts1 binding consensus) (protein, UniProt P53135 1-668)
chain: B1 chain with L616A, I619A
